The record followed here is patent US7446079B2, “Perfumes for rinse-off systems” (Givaudan Fragrances Corporation, priority 2005, dated 2008).

The series in a line: GC-MS headspace release profile of Tropical Fruit perfume in shampoo, 1/100 dilution in water. It counts as physicochemical. The procedure:
A 10 gram sample of formulation and fragrance was added to an empty 1000 ml pyrex beaker. This beaker was then filled with 1000 ml of 120 F tap water. Beaker with diluted shampoo sample was then immediately placed into a semi-enclosed plexiglass chamber.
Headspace Sampling: Once beaker was placed into chamber a Carboxan SPME field fiber was held at the top-side opening of the chamber over the beaker containing the sample. […] […] Top of plexiglass chamber was held open for entire 5 minutes of headspace sampling.

Each structure is given as a SMILES string.

Turning to `CCCCCCCC1CCC(=O)O1` (centres unmarked) [GAMMA UNDECALACTONE], the “GC Abundance” value runs as follows: (headspace at 40 seconds) 4000; (headspace at 50 seconds) 7000.
